Laboratory results as given in PMC8602850.
These are yes or no findings as the source states them, for the method shown. Some results given as binding are weak or reduced against the parent protein; the word gives no strength.

The chains behind the UniProt entries cited, without tags or fusion partners. Residues count along the entry.
UniProt P0DTC4: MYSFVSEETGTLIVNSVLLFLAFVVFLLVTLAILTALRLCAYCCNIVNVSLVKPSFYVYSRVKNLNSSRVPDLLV
UniProt Q07021, residues 74-282: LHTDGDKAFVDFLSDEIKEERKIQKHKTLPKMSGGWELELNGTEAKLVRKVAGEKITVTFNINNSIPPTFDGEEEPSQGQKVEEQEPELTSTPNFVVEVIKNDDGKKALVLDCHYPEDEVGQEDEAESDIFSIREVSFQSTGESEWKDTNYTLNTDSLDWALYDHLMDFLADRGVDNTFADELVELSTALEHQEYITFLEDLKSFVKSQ

Target: SARS-CoV-2 envelope (E) protein, recombinant (SARS-CoV-2) (UniProt P0DTC4)
Assay: ELISA; viral proteins (2-10 µg/ml) or ghA coated on microtiter wells in carbonate buffer pH 9.6, blocked with BSA; biotinylated gC1qR (1 µg/ml in Figure 5; 0-5 µg/ml in the methods), 1 h room temp., TBST washes; AP-streptavidin and pNPP; binding enhanced with 50 µM Zn (not shown); both purified

## gC1qR, wild type, mature recombinant (receptor for the globular heads of C1q) (from UniProt Q07021 74-282)
  binding: binds
